These results are taken from paper PMC11637432.

Assay [1] concerns the target third intracellular loop of MC1R. The assay is described as follows: pull-down; purified intracellular loops and C-terminus of MC1R (GST-tagged) on Glutathione Sepharose 4B beads incubated with HEK293T lysate expressing BBS2-HA, 4 h at 4°C; GST buffer (150 mM NaCl, 1 mM MgCl2, 50 mM Hepes, 1 mM EGTA, 0.5% Triton X-100, pH 7.4); only the target purified.
The target in assay [2] is second intracellular loop of MC1R. Described as above.

These are yes or no findings as the source states them, for the method shown. In cells and extracts the contact can be indirect. Binding can be weak; no strength is given. Sequences can lack the tags named with a protein.

B1: BBS2-HA (protein, UniProt Q9BXC9 1-721)
chain: MLLPVFTLKLRHKISPRMVAIGRYDGTHPCLAAATQTGKVFIHNPHTRNQHVSASRVFQSPLESDVSLLSINQAVSCLTAGVLNPELGYDALLVGTQTNLLAYDVYNNSDLFYREVADGANAIVLGTLGDISSPLAIIGGNCALQGFNHEGSDLFWTVTGDNVNSLALCDFDGDGKKELLVGSEDFDIRVFKEDEIVAEMTETEIVTSLCPMYGSRFGYALSNGTVGVYDKTSRYWRIKSKNHAMSIHAFDLNSDGVNELITGWSNGKVDARSDRTGEVIFKDNFSSAIAGVVEGDYRMDGHIQLICCSVDGEIRGYLPGTAEMRGNLMDTSAEQDLIRELSQKKQNLLLELRNYEENAKAELASPLNEADGHRGIIPANTRLHTTLSVSLGNETQTAHTELRISTSNDTIIRAVLIFAEGIFTGESHVVHPSIHNLSSSICIPIVPPKDVPVDLHLKAFVGYRSSTQFHVFESTRQLPRFSMYALTSLDPASEPISYVNFTIAERAQRVVVWLGQNFLLPEDTHIQNAPFQVCFTSLRNGGHLHIKIKLSGEITINTDDIDLAGDIIQSMASFFAIEDLQVEADFPVYFEELRKVLVKVDEYHSVHQKLSADMADHSNLIRSLLVGAEDARLMRDMKTMKSRYMELYDLNRDLLNGYKIRCNNHTELLGNLKAVNQAIQRAGRLRVGKPKNQVITACRDAIRSNNINTLFKIMRVGTASS
With B1, the binding result in assay [1] and in assay [2] was “binds” in each case.
